# Experimental data reported in the supplement of paper PMC8728848.
# The list shows a part of the results.
# B1: AT3G44510(29) (Arabidopsis thaliana), F4J341 (protein)
# chain: MEEHLQGRIKLHDGRYLAYKERGVPKDDAKFTIVLVHGFGSSKDMNFNVSQELVNEIGIYFVLYDRAGYGESDPNPKRSLKSEAYDVQELADGLEIGSRFYLIGISMGSYTVWSCLKHIPQRLAGVAMVAPVVNFRWPSIPKSLMPKDYRREVAKWSVWIANYFPGLLQWLVTQNMFSTTSMLEKNPVYFNDQDIEVLKHIKGFPMLTKEKLRERGVFGTLRSDFLVAFGDWDFDPADLPDPSLSGPEKGSSSVHIWQGYEDKVMPFQLQRCLCRKLPWIRYHEVPKGGHLIVHYDGICDAILKSLLLGEDLPMYKPKAVITEPA
# Experiments:
# Assay in all cases: glycan array binding signal (z-score within array); higher = stronger binding
# Settings in all cases: glycan notation: IUPAC condensed, linker removed
# [1] = biological target: Gal(b1-3)GlcNAc(b1-6)GalNAc
# How it was run: (§1)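 From the Consortium for Functional Glycomics database, 3228 arrays were curated, keeping only those whose protein sequence was available. Binding is given as a within-array Z-score averaged across arrays sharing a protein sequence and across linkers. Negative Z-scores can be read as non-binding.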
# [2] = biological target: Gal(b1-3)GlcNAc(b1-6)[Gal(b1-3)]GalNAc
# How it was run: as §1
# [3] = biological target: Gal(b1-3)GlcNAc6S
# How it was run: as §1
# [4] = biological target: Gal(b1-3)[Fuc(a1-4)]GlcNAc
# How it was run: as §1
# [5] = biological target: Gal(b1-3)[Fuc(a1-4)]GlcNAc(b1-2)Man
# How it was run: as §1
# [6] = biological target: Gal(b1-3)[Fuc(a1-4)]GlcNAc(b1-2)Man(a1-3)[Gal(b1-3)[Fuc(a1-4)]GlcNAc(b1-2)Man(a1-6)]Man(b1-4)GlcNAc(b1-4)[Fuc(a1-6)]GlcNAc
# How it was run: as §1
# [7] = biological target: Gal(b1-3)[Fuc(a1-4)]GlcNAc(b1-3)Gal(b1-3)[Fuc(a1-4)]GlcNAc
# How it was run: as §1
# [8] = biological target: Gal(b1-3)[Fuc(a1-4)]GlcNAc(b1-3)Gal(b1-4)[Fuc(a1-3)]GlcNAc
# How it was run: as §1
# [9] = biological target: Gal(b1-3)[Fuc(a1-4)]GlcNAc(b1-6)GalNAc
# How it was run: as §1
# [10] = biological target: Gal(b1-3)[GlcNAc(b1-6)]GalNAc
# How it was run: as §1
# [11] = biological target: Gal(b1-3)[Neu5Ac(a2-6)]GalNAc
# How it was run: as §1
# [12] = biological target: Gal(b1-3)[Neu5Ac(a2-6)]GlcNAc(b1-4)Gal(b1-4)Glc
# How it was run: as §1
# [13] = biological target: Gal(b1-3)[Neu5Ac(b2-6)]GalNAc
# How it was run: as §1
# [14] = biological target: Gal(b1-4)Gal
# How it was run: as §1
# [15] = biological target: Gal(b1-4)GalNAc(a1-3)[Fuc(a1-2)]Gal(b1-4)GlcNAc
# How it was run: as §1
# [16] = biological target: Gal(b1-4)GalNAc(b1-3)[Fuc(a1-2)]Gal(b1-4)GlcNAc
# How it was run: as §1
# [17] = biological target: Gal(b1-4)Glc
# How it was run: as §1
# [18] = biological target: Gal(b1-4)Glc6S
# How it was run: as §1
# [19] = biological target: Gal(b1-4)GlcNAc
# How it was run: as §1
# [20] = biological target: Gal(b1-4)GlcNAc(a1-6)Gal(b1-4)GlcNAc
# How it was run: as §1
# [21] = biological target: Gal(b1-4)GlcNAc(b1-2)Man
# How it was run: as §1
# [22] = biological target: Gal(b1-4)GlcNAc(b1-2)Man(a1-3)Man(b1-4)GlcNAc(b1-4)GlcNAc
# How it was run: as §1
# [23] = biological target: Gal(b1-4)GlcNAc(b1-2)Man(a1-3)[Gal(b1-4)GlcNAc(b1-2)Man(a1-6)]Man(b1-4)GlcNAc(b1-4)GlcNAc
# How it was run: as §1
# [24] = biological target: Gal(b1-4)GlcNAc(b1-2)Man(a1-3)[Gal(b1-4)GlcNAc(b1-2)Man(a1-6)]Man(b1-4)GlcNAc(b1-4)[Fuc(a1-6)]GlcNAc
# How it was run: as §1
# [25] = biological target: Gal(b1-4)GlcNAc(b1-2)Man(a1-3)[Gal(b1-4)GlcNAc(b1-2)Man(a1-6)][Gal(b1-4)GlcNAc(b1-4)]Man(b1-4)GlcNAc(b1-4)[Fuc(a1-6)]GlcNAc
# How it was run: as §1
# [26] = biological target: Gal(b1-4)GlcNAc(b1-2)Man(a1-3)[Gal(b1-4)GlcNAc(b1-2)Man(a1-6)][GlcNAc(b1-4)]Man(b1-4)GlcNAc(b1-4)[Fuc(a1-6)]GlcNAc
# How it was run: as §1
# [27] = biological target: Gal(b1-4)GlcNAc(b1-2)Man(a1-3)[GlcNAc(b1-2)Man(a1-6)]Man(b1-4)GlcNAc(b1-4)GlcNAc
# How it was run: as §1
# [28] = biological target: Gal(b1-4)GlcNAc(b1-2)Man(a1-3)[GlcNAc(b1-4)][Gal(b1-4)GlcNAc(b1-2)Man(a1-6)]Man(b1-4)GlcNAc(b1-4)GlcNAc
# How it was run: as §1
# [29] = biological target: Gal(b1-4)GlcNAc(b1-2)Man(a1-3)[Man(a1-6)]Man(b1-4)GlcNAc(b1-4)GlcNAc
# How it was run: as §1
# [30] = biological target: Gal(b1-4)GlcNAc(b1-2)Man(a1-6)Man(b1-4)GlcNAc(b1-4)GlcNAc
# How it was run: as §1
# [31] = biological target: Gal(b1-4)GlcNAc(b1-2)Man(a1-6)[GlcNAc(b1-2)Man(a1-3)]Man(b1-4)GlcNAc(b1-4)GlcNAc
# How it was run: as §1
# [32] = biological target: Gal(b1-4)GlcNAc(b1-2)Man(a1-6)[Man(a1-3)]Man(b1-4)GlcNAc(b1-4)GlcNAc
# How it was run: as §1
# [33] = biological target: Gal(b1-4)GlcNAc(b1-2)[Gal(b1-4)GlcNAc(b1-4)]Man(a1-3)[Gal(b1-4)GlcNAc(b1-2)Man(a1-6)]Man(b1-4)GlcNAc(b1-4)GlcNAc
# How it was run: as §1
# [34] = biological target: Gal(b1-4)GlcNAc(b1-2)[Gal(b1-4)GlcNAc(b1-4)]Man(a1-3)[Gal(b1-4)GlcNAc(b1-2)[Gal(b1-4)GlcNAc(b1-6)]Man(a1-6)]Man(b1-4)GlcNAc(b1-4)GlcNAc
# How it was run: as §1
# [35] = biological target: Gal(b1-4)GlcNAc(b1-2)[Gal(b1-4)GlcNAc(b1-4)]Man(a1-3)[GlcNAc(b1-4)][Gal(b1-4)GlcNAc(b1-2)Man(a1-6)]Man(b1-4)GlcNAc(b1-4)GlcNAc
# How it was run: as §1
# [36] = biological target: Gal(b1-4)GlcNAc(b1-2)[Gal(b1-4)GlcNAc(b1-4)]Man(a1-3)[GlcNAc(b1-4)][Gal(b1-4)GlcNAc(b1-2)[Gal(b1-4)GlcNAc(b1-6)]Man(a1-6)]Man(b1-4)GlcNAc(b1-4)GlcNAc
# How it was run: as §1
# [37] = biological target: Gal(b1-4)GlcNAc(b1-2)[Gal(b1-4)GlcNAc(b1-6)]Man(a1-6)[Gal(b1-4)GlcNAc(b1-2)Man(a1-3)]Man(b1-4)GlcNAc(b1-4)GlcNAc
# How it was run: as §1
binder,measurement,setting,value
B1,glycan array binding signal (z-score),[1],-0.517
same,glycan array binding signal (z-score),[2],-0.723
same,glycan array binding signal (z-score),[3],0.789
same,glycan array binding signal (z-score),[4],0.909
same,glycan array binding signal (z-score),[5],0.037
same,glycan array binding signal (z-score),[6],-0.17
same,glycan array binding signal (z-score),[7],-0.685
same,glycan array binding signal (z-score),[8],-0.679
same,glycan array binding signal (z-score),[9],0.345
same,glycan array binding signal (z-score),[10],-0.109
same,glycan array binding signal (z-score),[11],-0.229
same,glycan array binding signal (z-score),[12],-0.252
same,glycan array binding signal (z-score),[13],0.16
same,glycan array binding signal (z-score),[14],-0.473
same,glycan array binding signal (z-score),[15],-0.319
same,glycan array binding signal (z-score),[16],0.185
same,glycan array binding signal (z-score),[17],-0.212
same,glycan array binding signal (z-score),[18],1.06
same,glycan array binding signal (z-score),[19],-0.181
same,glycan array binding signal (z-score),[20],-0.378
same,glycan array binding signal (z-score),[21],1.46
same,glycan array binding signal (z-score),[22],-0.356
same,glycan array binding signal (z-score),[23],-0.419
same,glycan array binding signal (z-score),[24],0.034
same,glycan array binding signal (z-score),[25],-0.503
same,glycan array binding signal (z-score),[26],-0.063
same,glycan array binding signal (z-score),[27],-0.797
same,glycan array binding signal (z-score),[28],-0.057
same,glycan array binding signal (z-score),[29],0.261
same,glycan array binding signal (z-score),[30],0.719
same,glycan array binding signal (z-score),[31],-0.46
same,glycan array binding signal (z-score),[32],0.466
same,glycan array binding signal (z-score),[33],-0.78
same,glycan array binding signal (z-score),[34],0.171
same,glycan array binding signal (z-score),[35],0.756
same,glycan array binding signal (z-score),[36],-0.625
same,glycan array binding signal (z-score),[37],-0.005

# Not a retest: an excerpt of the list.
binder,measurement,setting,value
B1,glycan array binding signal (z-score),[25],-0.503
same,glycan array binding signal (z-score),[26],-0.063
same,glycan array binding signal (z-score),[27],-0.797
same,glycan array binding signal (z-score),[28],-0.057
same,glycan array binding signal (z-score),[29],0.261
same,glycan array binding signal (z-score),[30],0.719
same,glycan array binding signal (z-score),[31],-0.46
same,glycan array binding signal (z-score),[32],0.466
same,glycan array binding signal (z-score),[33],-0.78
same,glycan array binding signal (z-score),[34],0.171
same,glycan array binding signal (z-score),[35],0.756
